Substitutions are numbered along the chain they refer to. These are yes or no findings as the source states them, for the method shown. Binding seen in cells or lysates may run through a third protein. Some results given as binding are weak or reduced against the parent protein; the word gives no strength. Tags and fused reporters may be left off the sequences shown.
Assays:
[1] = target: T1, HA-Amot-p130 (mouse (by the paper's numbering: Ser176 in mouse, Ser175 in human)) (UniProt Q8VHG2); assay: co-IP; HEK293-shAmot cells co-transfected with an Amot-p130 allele (WT, S176A, S176E or PY motif mutants) and tagged partners; total RIPA lysate, IP with tag or protein antibodies overnight, immunoblot
T1 sequence: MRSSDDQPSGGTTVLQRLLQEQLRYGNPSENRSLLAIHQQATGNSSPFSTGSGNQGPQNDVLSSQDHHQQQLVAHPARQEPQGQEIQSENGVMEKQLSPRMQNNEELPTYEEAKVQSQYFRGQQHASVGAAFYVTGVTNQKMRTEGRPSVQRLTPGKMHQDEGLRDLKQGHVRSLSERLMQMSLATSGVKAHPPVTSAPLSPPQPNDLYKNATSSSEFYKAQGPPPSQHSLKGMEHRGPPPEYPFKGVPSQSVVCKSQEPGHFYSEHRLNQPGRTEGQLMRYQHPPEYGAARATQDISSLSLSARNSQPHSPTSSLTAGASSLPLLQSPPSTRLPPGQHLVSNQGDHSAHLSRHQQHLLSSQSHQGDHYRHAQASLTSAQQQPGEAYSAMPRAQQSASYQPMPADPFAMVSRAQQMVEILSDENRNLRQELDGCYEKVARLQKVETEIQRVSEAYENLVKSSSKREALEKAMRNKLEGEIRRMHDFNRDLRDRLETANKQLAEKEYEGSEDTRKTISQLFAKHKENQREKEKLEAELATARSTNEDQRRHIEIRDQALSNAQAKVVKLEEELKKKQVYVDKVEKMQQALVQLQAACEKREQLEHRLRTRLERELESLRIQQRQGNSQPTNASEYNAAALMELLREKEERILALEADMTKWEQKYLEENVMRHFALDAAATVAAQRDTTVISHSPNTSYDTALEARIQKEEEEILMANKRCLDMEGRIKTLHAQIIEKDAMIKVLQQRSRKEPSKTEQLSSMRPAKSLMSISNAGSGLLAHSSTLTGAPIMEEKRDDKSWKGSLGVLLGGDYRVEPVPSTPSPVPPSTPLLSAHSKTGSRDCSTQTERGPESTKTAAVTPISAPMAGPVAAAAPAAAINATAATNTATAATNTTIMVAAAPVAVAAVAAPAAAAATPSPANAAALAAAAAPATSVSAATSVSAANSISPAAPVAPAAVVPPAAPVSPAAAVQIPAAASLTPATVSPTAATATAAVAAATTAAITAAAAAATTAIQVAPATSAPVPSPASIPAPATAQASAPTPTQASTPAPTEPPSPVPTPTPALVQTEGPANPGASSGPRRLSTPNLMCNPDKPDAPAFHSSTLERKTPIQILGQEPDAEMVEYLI

Chains of the proteins cited; added tags and fusions are not shown.
UniProt P46937: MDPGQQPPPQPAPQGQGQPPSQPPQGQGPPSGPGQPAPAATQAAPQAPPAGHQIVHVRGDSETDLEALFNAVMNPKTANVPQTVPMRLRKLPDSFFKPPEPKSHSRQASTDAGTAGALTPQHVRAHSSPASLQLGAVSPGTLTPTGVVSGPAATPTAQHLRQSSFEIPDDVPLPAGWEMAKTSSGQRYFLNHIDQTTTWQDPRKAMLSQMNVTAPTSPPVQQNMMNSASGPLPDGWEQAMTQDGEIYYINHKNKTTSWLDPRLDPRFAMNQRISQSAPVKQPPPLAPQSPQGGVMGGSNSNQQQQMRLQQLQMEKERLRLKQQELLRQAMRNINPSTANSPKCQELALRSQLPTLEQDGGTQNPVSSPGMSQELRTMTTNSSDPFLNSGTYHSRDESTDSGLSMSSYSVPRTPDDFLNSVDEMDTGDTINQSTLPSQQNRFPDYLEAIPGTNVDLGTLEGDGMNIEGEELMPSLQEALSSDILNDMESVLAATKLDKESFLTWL

[2] = target: T2, HA-Amot-p130^S176A (mouse (by the paper's numbering: Ser176 in mouse, Ser175 in human)) (UniProt Q8VHG2); assay: as above
T2 sequence: T1 sequence with S176A

[3] = target: T2, HA-Amot-p130^S176A (mouse (by the paper's numbering: Ser176 in mouse, Ser175 in human)); assay: co-IP; hSC2λ cells co-transfected with YAP and an Amot allele, fractionated into cytoplasmic, nuclear and plasma membrane fractions; Amot IP of each fraction, anti-YAP immunoblot

Measured: binding

V5-tagged YAP (from UniProt P46937 1-504)
binds: all assays above
